The assay can be described thus: qHTS Assay for Modulators of Lamin A Splicing. To be noted: HeLa LMNA splicing GFP/RFP minigene ratio, 48 h. A digest of the protocol: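 Read-out is the ratio of GFP to DsRed2 object intensity, acquired by 488 nm laser-scanning cytometry on HeLa lamin A-EGFP minigene reporter cells. Compound incubation 48 hrs at 37 °C in Opti-MEM with 2% FBS; DMSO 0.5% final.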
For orientation: qHTS replaces the single test concentration by a dilution series.

The mark [1] stands for this setting: measured here: RFP viability control channel.
[2] abbreviates: measured here: GFP splicing reporter channel.

The structures appear in SMILES notation. This is one part of the list. Shown are side measurements of this screen, not its main read-out; they come without a call. Most of these compounds were active or inconclusive in the main read-out, so they are no random draw. Potencies come from curve fits of mixed quality, noted in brackets.

As for `c1ccc(-c2csc3ncnc(N4CCOCC4)c23)cc1`, under setting [1], the AC50 – broadly, the concentration at which the activity in the assay is half-maximal – is 0.794 µM [rising, partial curve].
Take `COc1cccc(Nc2nc(N)nc(-c3oc4ccccc4c3C)n2)c1`: the AC50 was 12.6 µM [falling, single point] under setting [2] and 12.6 µM [falling, partial curve] under setting [1].
For the molecule `CC(Oc1ccc(Cl)cc1Cl)C(=O)NCCC1=CCCCC1` (stereo not given), the concentration at half-maximal activity (AC50) under setting [1] was 20 µM [rising, partial curve, poor fit].
In the case of `O=C(Cc1cccc2ccccc12)Nc1ccc2c(c1)C(=O)NC2=O`, the AC50 runs as follows: under setting [2], 0.00562 µM [rising, full curve, poor fit]; under setting [1], 0.0398 µM [rising, full curve].
Turning to `CC(NC(=O)CSc1nnc(-c2cc3cc(Cl)ccc3o2)n1C)c1ccccc1` (stereo not given), the AC50 under setting [1] is 35.5 µM [rising, single point].
As to `CCCCNC(=S)Nc1ccc2nc3n(c(=O)c2c1)CCCCC3`, the AC50 under setting [1] is 35.5 µM [rising, single point].
Regarding `CCOc1ccccc1C(=O)N1CCN(c2ccc(C(F)(F)F)cn2)CC1`, the half-maximal activity concentration (AC50) under setting [1] is 11.2 µM [rising, single point].
Consider `COc1cc(OC)c(OC)cc1CN1CCc2nc(N3CCN(c4ccccc4F)CC3)ncc2C1`, for which, under setting [2], the AC50 is 14.1 µM [falling, partial curve].
For `COc1ccc(C(=O)Nc2nc3ccccc3c(=O)[nH]2)cc1`, the AC50 under setting [1] is 0.0355 µM [falling, full curve, poor fit].
With `Cc1nc(N2CCN(C(=O)c3ccco3)CC2)c2oc3ccccc3c2n1`, the concentration at half-maximal activity (AC50) by setting is: under setting [2], 20 µM [rising, partial curve, poor fit]; under setting [1], 28.2 µM [rising, single point].
Consider `CN(CC(=O)Nc1cccc(F)c1)CC(=O)Nc1ccccc1[N+](=O)[O-]`, for which the AC50 under setting [1] was 35.5 µM [falling, single point].
As to `O=C(/C=C/c1ccccc1)NC(NC(=S)Nc1cccc(O)c1)C(Cl)(Cl)Cl` (stereo not given), the concentration at half-maximal activity (AC50) under setting [1] is 12.6 µM [rising, single point].
Take `COc1ccc(/C=C(/CC(=O)NCc2ccc(Cl)cc2)c2nc3ccccc3s2)cc1`: the AC50 was 10 µM [rising, partial curve, poor fit] under setting [2] and 14.1 µM [rising, partial curve, poor fit] under setting [1].
Consider `Cc1cc(Br)ccc1OCC(=O)NNC(=O)c1cnccn1`, for which the concentration at half-maximal activity (AC50) under setting [2] is 17.8 µM [rising, single point] and the concentration at half-maximal activity (AC50) under setting [1] is 17.8 µM [rising, single point].
For the molecule `COc1ccc(C)cc1S(=O)(=O)NCC(c1ccc(N(C)C)cc1)N1CCc2ccccc21` (stereo not given), the concentration at half-maximal activity (AC50) under setting [2] is 35.5 µM [falling, single point].
For `CCc1nc2ccccc2c(=O)n1NC(=O)c1c(O)c2ccccc2n(CC)c1=O`, under setting [2], the AC50 is 0.631 µM [falling, single point].
Take `N=c1c(C(=O)NCc2ccc(F)cc2)cc2c(=O)n3ccccc3nc2n1Cc1ccco1`: the concentration at half-maximal activity (AC50) under setting [1] was 11.2 µM [rising, partial curve].
`O=C(Nc1ccc(S(=O)(=O)NCc2cccnc2)cc1)c1ccccc1Cl`: under setting [1], the AC50 was 8.91 µM [rising, partial curve].
On to `CCN(CC)S(=O)(=O)c1cccc(NC(=O)C2SC(=Nc3ccc(C)cc3C)C(C(=O)NC(C)COC)=C2N)c1` (stereo not given), for which the AC50 under setting [1] is 14.1 µM [rising, single point].
Regarding `COc1cc(OC)c(/C=N/n2c(C)nnc2C)c(OC)c1`, the AC50 under setting [1] was 31.6 µM [rising, single point].
As to `CCOc1ccccc1C1C(C#N)=C(N)SC(N)=C1C#N`, the AC50 under setting [1] is 35.5 µM [rising, single point].
For the molecule `Cc1ccc(-c2ccnc3nc(-n4cccc4)nn23)o1`, the AC50 under setting [1] is 0.112 µM [falling, full curve, poor fit].
As to `CC(C)Oc1ccc(C(=O)Nc2ccc(-c3nc4ccccc4s3)cc2)cc1`, under setting [2], the half-maximal activity concentration (AC50) is 6.31 µM [rising, single point].
For the molecule `N#CC(C#N)=NNc1ccc(S(=O)(=O)N2CCCC2)cc1`, the AC50 under setting [2] was 12.6 µM [rising, partial curve].
`Cn1ccnc1SCC(=O)Nc1cc(S(=O)(=O)N2CCOCC2)ccc1Cl`: the half-maximal activity concentration (AC50) reads like this: under setting [2], 15.8 µM [rising, partial curve, poor fit]; under setting [1], 14.1 µM [rising, partial curve, poor fit].
`CCNc1ncc2nc(-c3cn(C)c4ccccc34)c(=O)n(C)c2n1`: the AC50 was 0.282 µM [falling, full curve, poor fit] under setting [2] and 8.91 µM [falling, partial curve, poor fit] under setting [1].
For `O=C(Nc1ccc(S(=O)(=O)N2CCCCC2)cc1)c1ccc(CN2CCOCC2)cc1`, the half-maximal activity concentration (AC50) is, setting by setting: under setting [2], 3.98 µM [rising, partial curve]; under setting [1], 1.41 µM [rising, partial curve].
In the case of `Cc1cc(C)c(-n2c(C)cc(/C=C3/NC(=O)NC3=O)c2C)c(C)c1`, the AC50 under setting [1] was 22.4 µM [falling, single point].
`CCc1ccc(OCC(=O)Nc2ccc(-c3cc4ccccc4oc3=O)c(OC)c2)cc1`: the concentration at half-maximal activity (AC50) is 8.91 µM [rising, partial curve, poor fit] under setting [2] and 12.6 µM [rising, partial curve] under setting [1].
With `Cc1cc(C(=O)Nc2cccnc2)cs1`, under setting [1], the half-maximal activity concentration (AC50) is 14.1 µM [rising, single point].
For the molecule `Cc1ccc(Cl)cc1NC(=O)CCCN1C(=O)CCn2nc(-c3cn(C)c4ccccc34)cc21`, the AC50 runs as follows: under setting [2], 0.0224 µM [falling, full curve, poor fit]; under setting [1], 0.00316 µM [falling, full curve, poor fit].
For the molecule `Cc1cc(Cl)c(S(=O)(=O)N2CCSCC2)cc1OCC(=O)NC1CCCCC1`, the half-maximal activity concentration (AC50) by setting is: under setting [2], 2 µM [rising, full curve]; under setting [1], 2.82 µM [rising, full curve].
With `Cc1noc(C)c1S(=O)(=O)N1CCC(Cc2ccccc2)CC1`, the AC50 is, setting by setting: under setting [2], 35.5 µM [rising, single point]; under setting [1], 35.5 µM [rising, single point].
Take `Cc1nc2c(c3c1[nH]c1ccccc13)C(=O)CC(C)(C)C2`: the half-maximal activity concentration (AC50) under setting [1] is 15.8 µM [rising, single point].
`O=C(CC1SCCNC1=O)Nc1ccc(Cl)cc1` (stereo not given): the AC50 under setting [2] was 0.00282 µM [rising, full curve, poor fit].
Take `Cc1cccn2c(=O)c(C=Nc3ccc(Cl)cc3)c(NCCO)nc12`: the concentration at half-maximal activity (AC50) under setting [1] was 22.4 µM [rising, single point].
For `Cc1ccc(C(=O)N2CC(C)SC2=Nc2cccc(S(=O)(=O)N(C)C)c2)cc1` (stereo not given), the concentration at half-maximal activity (AC50) under setting [1] was 31.6 µM [rising, single point].
As for `O=C(CSc1nc2ccccc2nc1Cc1ccccc1)N1CCN(c2ccccc2)CC1`, under setting [2], the AC50 is 0.398 µM [rising, single point].
On to `Cc1ccc(S(=O)(=O)N2CCOCC2)cc1C(=O)Nc1ccc2c(c1)CCC2`, for which the concentration at half-maximal activity (AC50) under setting [1] is 22.4 µM [rising, single point].
As to `Cc1ccc(OCCn2c(=O)cnc3ccccc32)cc1`, the concentration at half-maximal activity (AC50) under setting [2] was 15.8 µM [rising, single point] and the AC50 under setting [1] was 25.1 µM [rising, single point].
As for `Cc1nnc2sc(-c3csc4c3CCCC4)nn12`, the AC50 by setting is: under setting [2], 14.1 µM [falling, single point]; under setting [1], 15.8 µM [falling, single point].
For the molecule `CC12CCC(c3c(C(=O)Nc4nccs4)nn(-c4ccccc4)c31)C2(C)C` (stereo not given), the half-maximal activity concentration (AC50) under setting [2] is 17.8 µM [rising, partial curve] and the half-maximal activity concentration (AC50) under setting [1] was 22.4 µM [rising, single point].
As to `Cc1ccc(OCc2nnc(SCC(=O)CC(=O)Nc3ccccc3)o2)cc1`, the half-maximal activity concentration (AC50) under setting [1] was 17.8 µM [rising, single point].
As for `CC(=S)c1c(C)cc2cc(C)ccn12`, the half-maximal activity concentration (AC50) is, setting by setting: under setting [2], 7.08 µM [rising, partial curve, poor fit]; under setting [1], 7.94 µM [rising, partial curve, poor fit].
Turning to `COc1ccc(C2C3=C(N=C4SCC(=O)N42)c2ccccc2CC3)cc1` (stereo not given), the half-maximal activity concentration (AC50) under setting [2] is 10 µM [rising, partial curve] and the AC50 under setting [1] was 10 µM [rising, partial curve].
With `CC(Sc1cnccn1)C(=O)O` (stereo not given), the AC50 under setting [1] is 0.0562 µM [rising, full curve, poor fit].
Turning to `Oc1ccccc1/C=N/NC(=S)NC1CC2CCC1C2` (stereo not given), the half-maximal activity concentration (AC50) under setting [2] is 11.2 µM [falling, partial curve, poor fit].
Turning to `CC1(C)O[C@@H]2C[C@@H]3[C@H]4C[C@@H](F)C5=CC(=O)C=C[C@]5(C)[C@@]4(F)[C@@H](O)C[C@]3(C)[C@]2(C(=O)CO)O1`, the half-maximal activity concentration (AC50) under setting [2] is 35.5 µM [falling, single point] and the concentration at half-maximal activity (AC50) under setting [1] was 0.316 µM [falling, partial curve, poor fit].
Regarding `O=C(CCCN1C(=O)/C(=C/c2ccco2)SC1=S)Nc1ccccc1`, the AC50 under setting [1] was 17.8 µM [rising, partial curve].
As for `O=C(COc1ccc(Br)cc1Cl)NC1CCCCC1`, the half-maximal activity concentration (AC50) is 15.8 µM [rising, partial curve, poor fit] under setting [2] and 17.8 µM [rising, partial curve] under setting [1].
Regarding `N#Cc1ccc(NC(=O)Nc2ccc(Oc3ccc(NC(=O)Nc4ccc(C#N)cc4)cc3)cc2)cc1`, the AC50 was 35.5 µM [rising, single point] under setting [2] and 31.6 µM [rising, single point] under setting [1].
Regarding `CCOc1ccc(-n2c(SCc3ccc([N+](=O)[O-])cc3)nnc2-c2ccccc2)cc1`, the AC50 under setting [1] was 31.6 µM [rising, single point].
With `Cn1ncc([N+](=O)[O-])c1C(=O)Nc1ccc(-c2nc3ccccc3o2)cc1`, the AC50 runs as follows: under setting [2], 3.98 µM [falling, single point]; under setting [1], 4.47 µM [falling, full curve, poor fit].
Regarding `CC1(C)CC(=O)c2c(oc3ccc(NS(=O)(=O)c4ccc(C(=O)O)cc4)cc23)C1`, the AC50 under setting [1] is 1.58 µM [rising, partial curve, poor fit].
